Among the data in article PMC11068011 (Science Advances, 2024) are binding values, retold here.

Chains of the proteins cited; added tags and fusions are not shown.
UniProt Q6ZNE5: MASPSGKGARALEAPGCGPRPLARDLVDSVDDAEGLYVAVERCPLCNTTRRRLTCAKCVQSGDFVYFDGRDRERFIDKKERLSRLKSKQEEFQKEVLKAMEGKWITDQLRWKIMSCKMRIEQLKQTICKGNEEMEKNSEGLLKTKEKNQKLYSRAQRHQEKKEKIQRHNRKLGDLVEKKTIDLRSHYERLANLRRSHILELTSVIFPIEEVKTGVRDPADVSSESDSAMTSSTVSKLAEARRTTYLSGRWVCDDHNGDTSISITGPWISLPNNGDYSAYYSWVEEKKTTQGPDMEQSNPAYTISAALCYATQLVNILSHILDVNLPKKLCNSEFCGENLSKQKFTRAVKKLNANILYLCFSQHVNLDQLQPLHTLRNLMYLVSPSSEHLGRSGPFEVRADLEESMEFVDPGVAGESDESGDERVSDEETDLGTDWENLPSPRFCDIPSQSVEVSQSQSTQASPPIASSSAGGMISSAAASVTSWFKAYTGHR

Residue numbers refer to the chain shown, from its start. These are yes or no findings as the source states them, for the method shown. Binding seen in cells or lysates may run through a third protein. Some entries that bind do so weakly or less than the wild type. For some of these results: Sequences can lack the tags named with a protein.

The target of assay [1] is ATG14L, endogenous in HeLa cells (human (endogenous in HeLa)) (UniProt Q6ZNE5). As to the kind of experiment: co-IP; Endogenous ATG14L immunoprecipitated (mouse anti-ATG14L, Dynabeads Protein G) from control, p37 KO or p37-Clover-overexpressing HeLa cells; 20 mM tris pH 7.4, 2 mM MgCl2, 200 mM NaCl, 0.5% NP-40.
Assay [2] concerns the target T1, p47 ∆UBA (46 to 370), FLAG-tagged (human) (UniProt Q9UNZ2).
T1 sequence: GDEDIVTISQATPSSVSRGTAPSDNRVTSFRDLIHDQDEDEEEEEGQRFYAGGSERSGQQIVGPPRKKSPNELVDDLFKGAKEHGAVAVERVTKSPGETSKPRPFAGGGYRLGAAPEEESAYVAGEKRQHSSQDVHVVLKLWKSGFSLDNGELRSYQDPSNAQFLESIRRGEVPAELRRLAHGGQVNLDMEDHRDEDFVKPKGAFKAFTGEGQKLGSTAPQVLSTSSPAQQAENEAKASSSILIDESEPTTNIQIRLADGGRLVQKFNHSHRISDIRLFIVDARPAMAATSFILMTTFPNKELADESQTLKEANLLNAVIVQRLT
Nature of the assay: co-IP; Anti-FLAG M2 magnetic beads, 1 hour at 4°C, from lysates of HeLa cells expressing FLAG-tagged p47 (WT or mutant) and p37-Clover; 50 mM tris pH 7.4, 2 mM MgCl2, 150 mM NaCl, 0.5% NP-40, 10% glycerol; the p47-p37 interaction was also seen in VCP-depleted cells (fig. S2C).

For assay [3], the target named is T2, p47 V15A/L34A/Y42A (VLY) mutant, FLAG-tagged (human) (UniProt Q9UNZ2).
T2 sequence: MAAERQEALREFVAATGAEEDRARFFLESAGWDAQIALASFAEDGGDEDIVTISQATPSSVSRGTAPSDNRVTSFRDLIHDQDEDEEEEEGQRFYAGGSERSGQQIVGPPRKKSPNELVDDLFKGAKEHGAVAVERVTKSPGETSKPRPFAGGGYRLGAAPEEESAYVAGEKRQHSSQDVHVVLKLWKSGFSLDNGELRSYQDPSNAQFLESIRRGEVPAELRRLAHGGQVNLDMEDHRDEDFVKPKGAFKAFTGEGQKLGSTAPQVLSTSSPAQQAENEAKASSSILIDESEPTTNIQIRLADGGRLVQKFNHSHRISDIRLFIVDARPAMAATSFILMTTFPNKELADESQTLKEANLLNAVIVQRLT
The assay is described as above.

The target in assay [4] is T3, FLAG-tagged full-length p47 (wild type) (human) (UniProt Q9UNZ2).
T3 sequence: T2 sequence with A15V, A34L, A42Y
The assay is described as above.

“Valosin-containing protein (VCP), endogenous in HeLa cells (from UniProt P55072 1-806)”: in assay [1], the binding entry is given as “binds”.

B1: purified WT p37 (natural protein, human, UniProt Q14CS0 1-331, looked up)
chain: MAEGGGPEPGEQERRSSGPRPPSARDLQLALAELYEDEVKCKSSKSNRPKATVFKSPRTPPQRFYSSEHEYSGLNIVRPSTGKIVNELFKEAREHGAVPLNEATRASGDDKSKSFTGGGYRLGSSFCKRSEYIYGENQLQDVQILLKLWSNGFSLDDGELRPYNEPTNAQFLESVKRGEIPLELQRLVHGGQVNLDMEDHQDQEYIKPRLRFKAFSGEGQKLGSLTPEIVSTPSSPEEEDKSILNAVVLIDDSVPTTKIQIRLADGSRLIQRFNSTHRILDVRNFIVQSRPEFAALDFILVTSFPNKELTDESLTLLEADILNTVLLQQLK
notes: p37 (UBXN2B), human, wild type, from pGEX-6P-1 p37; also called p37 WT; p37WT; source: E. coli Rosetta 2 BL21 (DE3), purified (glutathione sepharose, eluted by PreScission cleavage)
Take B1: the binding result in assay [2], in assay [3] and in assay [4] was “binds” throughout.
